Some of the results follow. These are further read-outs of the screen, such as a control signal, another cell line or another target. No call is given for them. Most of these compounds were active or inconclusive in the main read-out, so they are no random draw. The note in brackets gives the kind of curve behind each potency; many fits are weak.

The nature of this experiment: qHTS Assay to Find Inhibitors of Chronic Active B-Cell Receptor Signaling. Particulars: ABC-DLBCL IkBa-CBG/CBR reporter, luminescence ratio (green luciferase fused to IkBa over red control in TMD8 lymphoma cells), 4 h. The gist of the method:
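TMD8 human ABC-DLBCL cells with doxycycline-inducible IκBα–green luciferase fusion and unfused red luciferase, in 0.5% FBS medium; compounds up to 46 uM, 4 h at 37C. Green/red luminescence ratio, filter-overlap corrected, fitted to concentration-response curves.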

Where [1] appears, read: measured here: CBR red luminescence, cell number.
Where [2] appears, read: measured here: IkBa-CBG green luminescence.

With `Cc1ccc(C)c(C2=NNC(=NCc3ccccc3)SC2)c1`, under setting [1], the AC50 was 2.51 µM [falling, partial curve, poor fit].

In the case of `CCOc1ccccc1CN1CCNC(=O)C1CC(=O)NCCC1=CCCCC1` (stereo not given), the AC50 under setting [1] is 25.1 µM [falling, single point].

With `OCCN1CCN(C2Cc3cc(Cl)ccc3Sc3ccc(Cl)cc32)CC1` (stereo not given) (tested in a mixture with another compound), the half-maximal activity concentration (AC50) under setting [1] was 29.1 µM [falling, single point].

In the case of `Cc1sc2nc3c(SC(C)C(=O)O)cc(C(=O)c4ccccc4O)cn3c(=O)c2c1C` (stereo not given), the AC50 under setting [1] was 16.4 µM [falling, partial curve].

Turning to `N#CCSc1nc(-c2ccccc2)cs1`, the AC50 under setting [1] was 4.61 µM [rising, partial curve, poor fit].

In the case of `O=C(COC(=O)c1ccccc1NCc1ccco1)Nc1ccc2c(c1)OCO2`, the AC50 under setting [1] is 10 µM [rising, partial curve].

Regarding `COc1ccc(/C=C/C(=O)OCC(=O)NC(C)CCc2ccccc2)cc1OC` (stereo not given), the AC50 under setting [1] is 18.4 µM [rising, partial curve, poor fit].

As to `COC(=O)c1ccc(OC(C)C(=O)c2ccc(C)cc2)cc1` (stereo not given), under setting [1], the AC50 was 8.2 µM [rising, partial curve, poor fit].

In the case of `O=C(c1cc2c(s1)CCCC2)N1CCN(C(=O)C2CCCO2)CC1` (stereo not given), the AC50 under setting [1] is 8.2 µM [rising, partial curve, poor fit].

Take `COc1cccc(-c2cc(C(=O)Nc3cc(C)n(Cc4ccc(Cl)cc4)n3)no2)c1`: the AC50 under setting [1] is 4.11 µM [falling, full curve, poor fit].

On to `Nc1ncnc2c1ncn2[C@H]1CC[C@@H](CO)O1`, for which, under setting [1], the AC50 is 25.9 µM [rising, single point].

For `Cn1cc(Br)c(C(=O)N/N=C/c2cc3c(cc2Cl)OCO3)n1`, the AC50 under setting [1] is 2.24 µM [falling, full curve].

On to `CCOc1ccc(CN2C(=O)c3ccccc3C2=O)cc1C(=O)Nc1nnc(SCC)s1`, for which the AC50 under setting [1] is 6.51 µM [rising, single point].

As for `C=CCOC(=O)c1sc(NC(=O)c2ccco2)nc1C`, under setting [1], the AC50 is 2 µM [falling, partial curve, poor fit].

With `COc1cccc(-c2csc(N3CCN(CC(=O)NNC(=O)c4ccc(Cl)cc4)CC3)n2)c1`, the AC50 under setting [1] is 11.2 µM [falling, single point].

In the case of `COc1ccc(-c2noc(Cc3ccccc3OC)n2)cc1`, the AC50 under setting [1] is 22.4 µM [falling, partial curve, poor fit].

Turning to `CC(C)(C)N1C(=O)c2ccc(C(=O)Nc3ccc(O)cc3)cc2C1=O`, the AC50 under setting [1] is 12.6 µM [falling, partial curve].

For `c1cnc(N2CCN(c3ccc4ccccc4n3)CC2)nc1`, the AC50 under setting [1] is 12.6 µM [falling, partial curve, poor fit].

As for `O=C(Nc1cccc(Cl)c1)c1ccc(=O)[nH]n1`, the AC50 under setting [1] is 11.2 µM [falling, partial curve, poor fit].

For `COc1ccccc1NS(=O)(=O)c1cccc(-n2c(O)c(C=Nc3ccccc3C(=O)O)c3ccccc3c2=O)c1`, the AC50 under setting [1] was 12.6 µM [falling, partial curve].

As to `O=C(NCCc1ccccn1)c1cccc(S(=O)(=O)N2CCc3ccccc32)c1`, under setting [1], the AC50 was 12.6 µM [falling, partial curve, poor fit].

For the compound `COC(=O)c1ccccc1NC(=O)CSc1nc(C)c(Cl)c(C)c1C#N`, the AC50 under setting [1] is 3.16 µM [falling, single point].

With `S=C(N/N=C/c1ccc2ncccc2c1)Nc1cccnc1`, the AC50 under setting [1] is 14.1 µM [falling, partial curve, poor fit].

Regarding `NS(=O)(=O)c1ccc(CCNC(=O)CNCCc2ccccc2)cc1`, the AC50 under setting [1] is 5.62 µM [rising, single point].

Take `COC(=O)C(=Cc1ccccc1[N+](=O)[O-])C(=O)OC`: the concentration at half-maximal activity (AC50) under setting [1] is 1.41 µM [falling, full curve].

For `Cc1c(Cl)cccc1N/C(SCC(=O)N1CCCCCC1)=C(/C#N)c1nc2ccccc2s1`, under setting [1], the AC50 is 5.8 µM [falling, full curve].

Turning to `NS(=O)(=O)c1ccc(CNC(=O)/C=C/c2ccc(Cl)c(Cl)c2)cc1`, the half-maximal activity concentration (AC50) under setting [1] was 20.6 µM [falling, single point].

With `Clc1cccc(-c2cc3nc4c(c(N5CCNCC5)n3n2)CCCC4)c1`, the AC50 under setting [1] is 29.1 µM [falling, single point].

As to `CC(=O)Nc1cc2nn(-c3ccccc3)nc2cc1C`, the AC50 under setting [1] was 12.6 µM [rising, single point].

In the case of `COc1ccc(OCCNc2cc(N3CCOCC3)ccc2[N+](=O)[O-])cc1`, the half-maximal activity concentration (AC50) under setting [1] is 14.1 µM [rising, partial curve].

As to `Cc1c(NC(=O)c2cc3c(s2)CCCC3)c(=O)n(-c2ccccc2)n1C`, the AC50 under setting [1] is 35.5 µM [rising, partial curve, poor fit].

Consider `CC1CCN(C(=O)Cn2cc(SCC(=O)NCC3CCCO3)c3ccccc32)CC1` (stereo not given), for which the AC50 under setting [1] was 10 µM [falling, partial curve, poor fit].

Consider `CC1CCN(C(=O)COC(=O)c2cccs2)CC1`, for which the AC50 under setting [1] is 14.6 µM [falling, single point].

In the case of `COc1cc(N2CCCC2)c(OC)cc1/C=C(/C#N)c1ccc(F)cc1`, the AC50 under setting [1] is 1.16 µM [rising, full curve, poor fit].

On to `Cc1ccc(OCc2nc(-c3ccccn3)no2)cc1`, for which the half-maximal activity concentration (AC50) under setting [1] was 10.3 µM [falling, partial curve].

On to `O=C(c1ccncc1)N1CCN(C(=O)c2cccc3ccccc23)CC1`, for which the AC50 under setting [1] is 35.5 µM [falling, partial curve, poor fit].

With `Oc1ccc(Cl)cc1CNc1ccccn1`, the AC50 under setting [1] was 2.51 µM [rising, partial curve, poor fit].

With `O=C(Nc1ccc(Cl)c(S(=O)(=O)N2CCCCC2)c1)c1ccncc1`, the AC50 under setting [1] was 29.1 µM [falling, partial curve, poor fit].

Turning to `Cc1nn(C)cc1C(=O)Nc1ccc2c(c1)OCCO2`, the AC50 under setting [1] was 17.8 µM [falling, partial curve, poor fit].

As for `CNC(=O)c1ccc2c(c1)N(Cc1ccccc1Cl)C(=O)c1ccccc1S2`, the AC50 under setting [1] was 35.5 µM [falling, single point].

For `CCOC(=O)c1cccc(NC(=O)COc2ccc([N+](=O)[O-])cc2)c1`, the AC50 under setting [1] was 10 µM [falling, partial curve, poor fit].

For the compound `Cc1ccsc1C(=O)Nc1nc2ccccc2[nH]1`, the AC50 under setting [1] was 1.41 µM [falling, full curve].

For `Cc1ccc(Nc2ccc(C(=O)O)cc2N)cc1`, the AC50 under setting [1] was 11.2 µM [falling, partial curve, poor fit].

Consider `COCCNC(=O)c1c(N)n(/N=C/c2cccs2)c2nc3ccccc3nc12`, for which the AC50 under setting [2] was 3.26 µM [rising, full curve, poor fit].

Consider `C=C(C)c1ccccc1`, for which the AC50 under setting [1] is 2.06 µM [rising, partial curve, poor fit].

As to `CC(=O)Oc1c(C)cc(Cl)cc1C(=O)Nc1ccc([N+](=O)[O-])cc1Cl`, the concentration at half-maximal activity (AC50) under setting [1] is 0.651 µM [falling, full curve].

As for `COc1ccc(C(=O)C2CCCN(C(=O)c3ccc4cc[nH]c4c3)C2)c(C)c1` (stereo not given), the AC50 under setting [1] was 17.8 µM [rising, partial curve, poor fit].

Consider `CC1CCc2sc(C(=O)NN)cc2C1` (stereo not given), for which the AC50 is, setting by setting: under setting [1], 8.91 µM [falling, partial curve, poor fit]; under setting [2], 20 µM [falling, partial curve, poor fit].

On to `Cc1cnc(NC(=O)Cc2c[nH]c3ccccc23)s1`, for which, under setting [1], the half-maximal activity concentration (AC50) was 6.31 µM [falling, full curve, poor fit].

As for `COc1cc(-c2ncc3ccccn23)cc(OC)c1OC`, the concentration at half-maximal activity (AC50) under setting [1] is 0.82 µM [falling, full curve, poor fit].

Take `CC1(C)Oc2ccc(C(=O)NC3CCCC3)cc2N(CC(=O)N2CCOCC2)C1=O`: the AC50 under setting [1] was 35.5 µM [rising, single point].

As to `CCc1ccc(OCCCC(=O)O)c(Br)c1`, the AC50 under setting [1] is 29.1 µM [rising, single point].

Turning to `CCOC(=O)N1CCC(NC(=O)CN(C)S(=O)(=O)c2cc3c(cc2Cl)NC(=O)CO3)CC1`, the AC50 under setting [1] was 0.146 µM [falling, full curve, poor fit].

With `O=C(Nc1nc(-c2ccccc2)cs1)c1cccs1`, the AC50 under setting [1] is 11.2 µM [falling, partial curve, poor fit].

For `CCn1cc([N+](=O)[O-])c(C(=O)N2N=C(c3ccc4ccccc4c3)CC2c2ccccc2O)n1` (stereo not given), the AC50 under setting [1] is 5.8 µM [falling, full curve, poor fit].

As to `Cc1ccc2nc(Nc3nc(C)cc(-c4ccccc4)n3)[nH]c(=O)c2c1`, the AC50 under setting [1] is 35.5 µM [falling, partial curve, poor fit].

Consider `O=C(Nc1ccccn1)c1ccc(Cl)c(S(=O)(=O)N2CCCCCC2)c1`, for which, under setting [1], the AC50 is 1.3 µM [falling, full curve, poor fit].

Regarding `CC1CCN(CCNC(=O)C2CCCN(c3ncnc4c3nc3n4CCCCC3)C2)CC1` (stereo not given), under setting [1], the half-maximal activity concentration (AC50) is 2.82 µM [falling, partial curve, poor fit].

Consider `Nc1nccc(-c2ccc(-n3cnc4ccccc43)cc2)n1`, for which the AC50 under setting [1] was 17.8 µM [falling, partial curve].

In the case of `c1ccc2c(Nc3nc(N4CCOCC4)c4ccccc4n3)cccc2c1`, the AC50 under setting [1] is 14.6 µM [falling, partial curve].

Regarding `O=C(Nc1ccc(S(=O)(=O)Nc2nccs2)cc1)c1cnc(Cl)c(Cl)c1`, the AC50 under setting [1] is 35.5 µM [falling, single point].

`Cc1cccc(CC(=O)N2CCN=C2SCc2ccc([N+](=O)[O-])cc2)c1`: the AC50 under setting [1] is 29.1 µM [falling, single point].

In the case of `CC(C(=O)N(C)C)N(C#N)c1nc(N(C)C)nc(N(C)C)n1` (stereo not given), the AC50 under setting [1] was 5.62 µM [rising, single point].

`CN(C(=O)c1ccc(N2CCCCC2)c([N+](=O)[O-])c1)C1CCS(=O)(=O)C1` (stereo not given): the AC50 under setting [1] was 2.06 µM [rising, partial curve, poor fit].

(Values after PubChem BioAssay AID493014 (National Center for Advancing Translational Sciences (NCATS), 2011).)
